{"source": "the supplement of paper PMC10689618", "note": "Some of the results follow. Single values are uncertain, as repeats are few or missing.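 Primary human fetal astrocytes engulfed labelled rat cortical synaptosomes, measured as a red/green ratio corrected for calcein live-cell signal and scaled to the plate median. Toxicity meant calcein falling over 30%; decreased phagocytosis meant below 70% of median above 5 µM.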", "data": [{"tested_on": "Human fetal astrocytes", "assay": "loss of total cells relative to no-compound high-control median (toxicity); higher = more toxic (fewer cells)", "details": "1.39 µM; 24 h", "units": {"loss of total cells": "%"}, "values": [{"smiles": "COc1cc(C)c(C(=O)Oc2cc(C)c(C(=O)O)c(O)c2C)c(OC)c1C", "loss of total cells": -9}, {"smiles": "CON", "loss of total cells": -18.9}, {"smiles": "O=C(O)Cc1cc(I)c(Oc2ccc(O)c(I)c2)c(I)c1", "loss of total cells": 11.9}, {"smiles": "CC(=O)Oc1cc(OC(C)=O)c2c(c1)O[C@H](c1ccc(OC(C)=O)c(OC(C)=O)c1)[C@H](OC(C)=O)C2", "loss of total cells": -6.9}, {"smiles": "Cc1occc(=O)c1O", "loss of total cells": -10.7}, {"smiles": "CC(=O)C1CCC2C3CC=C4CC(OS(=O)(=O)O)CCC4(C)C3CCC12C", "note": "(configuration not stated)", "loss of total cells": -9.8}, {"smiles": "CC(=O)NCCCCCC(=O)O", "loss of total cells": 27.8}, {"smiles": "c1coc(CNc2ncnc3[nH]cnc23)c1", "loss of total cells": 24.2}, {"smiles": "CC(=O)Nc1ccc(S(=O)(=O)c2ccc(NC(C)=O)cc2)cc1", "loss of total cells": -21.6}, {"smiles": "O=C(O)CCNC(=O)c1ccccc1", "loss of total cells": 16.2}, {"smiles": "CC1(C)S[C@@H]2[C@H](NC(=O)[C@H](N)c3ccc(O)cc3)C(=O)N2[C@H]1C(=O)O", "loss of total cells": 11.6}, {"smiles": "CC(=O)Oc1cc(OC(C)=O)c2c(c1)O[C@H](c1ccc(OC(C)=O)c(OC(C)=O)c1)[C@@H](OC(C)=O)C2", "loss of total cells": -27.2}, {"smiles": "COCCc1ccc(OCC(O)CNC(C)C)cc1", "note": "(configuration not stated)", "loss of total cells": -13.3}, {"smiles": "O=C(O)C(S)C(S)C(=O)O", "note": "(configuration not stated)", "loss of total cells": -19.7}, {"smiles": "O=c1[nH]cnc2c1ncn2[C@@H]1O[C@H](CO)[C@@H](O)[C@H]1O", "loss of total cells": 23.5}, {"smiles": "CN(C(=O)CN(CCO)CC(=O)N(C)C(C)(C)Cc1ccccc1)C(C)(C)Cc1ccccc1", "loss of total cells": -6.5}, {"smiles": "CC(C)C[C@@H]1NC(=O)[C@H](CCCN)NC(=O)[C@H](C(C)C)NC(=O)[C@H](Cc2ccc(O)cc2)N[C@@H](CCC(=O)O)C(=O)N[C@@H](CC(N)=O)C(=O)[C@@H](Cc2ccccc2)NC(=O)[C@H](Cc2ccccc2)NC(=O)[C@@H]2CCCN2C(=O)[C@@H](Cc2ccccc2)NC1=O", "loss of total cells": 33.5}]}]}
